Paper PMC2394298
Construct, isoform or probe ends are uncertain for at least one entry. At least one result comes from cells or an extract, where the contact may be indirect.

Tested on: NF-kB p50 (heterodimer subunit) + NF-kB p65 (RelA)
Experiment: EMSA supershift
Details: NS-398-treated (50 uM, 96 h) HT-29 nuclear extract, absent in untreated control; 1 mM MgCl2, 1 mM KCl, 7.5% Ficoll, 8.5 mM HEPES (pH not given), 1 mM DTT, 1 mg/ml BSA, 1-4 ug poly(dI-dC), 1-4 ug nuclear extract, 20 ul, room temperature; protein in an extract; label: 32P 5' end label

AGTTGAGGGGACTTTCCCAGGC (double strand) [NF-kB consensus oligonucleotide (Promega)]
binding result: binds
